As a reminder, the AC50 is the concentration giving half of the maximal activity seen.

We go through 60 molecules from PubChem BioAssay AID2685 (National Center for Advancing Translational Sciences (NCATS), 2010).

Structures are written as SMILES. Some of the results follow. Further columns of the screen follow, without active or inactive calls. Most of these compounds were active or inconclusive in the main read-out, so they are no random draw. Potencies come from curve fits of mixed quality, noted in brackets.

The assay can be described thus: qHTS Assay for Lipid Storage Modulators in Drosophila S3 Cells.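 For cell number change: cells counted by Cell Tracker Red CMTPX staining in the red channel.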 The note with it: BODIPY lipid droplet fluorescence, 18-24 h; for cell number change: measured here: cell count max response, cells fed with added oleic acid. The method in brief: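 Drosophila S3 cells loaded with oleic acid (400 uM, as added) and compounds at several concentrations; lipid droplets imaged by 488-nm laser-scanning cytometry, 500–530 nm intensity and object ratio to cell channel. Percent activity normalized to 20 uM Triacsin C.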
A general note: Quantitative high-throughput screening tests each substance at several concentrations.

[1] abbreviates: measured here: cell number channel AC50, cells fed with added oleic acid.
Where [2] appears, read: measured here: lipid fluorescence (Fed channel) AC50, cells fed with added oleic acid.

`Cc1ccc(SCC(=O)OCC(=O)NC2CCCCCCC2)cc1`: the cell number change was -33%. The concentration at half-maximal activity (AC50) under setting [1] is 13 µM [falling, partial curve].
`O=C(Nc1ccc(F)cc1)c1sc2cc(C(F)(F)F)cnc2c1-c1cccs1`: the cell number change was 27%. Moreover, the AC50 under setting [1] was 3.66 µM [rising, full curve, poor fit]. For the same molecule, the AC50 under setting [2] is 1.64 µM [falling, partial curve].
In the case of `COc1ccc(-n2nc(C(=O)NCC(=O)N3CCC(C(N)=O)CC3)c3ccccc3c2=O)cc1`, the cell number change came to 6.25%.
For `O=C(c1ccc(Cl)c([N+](=O)[O-])c1)N1CCN(c2ccccc2)CC1`, the cell number change is -12.7%. Further, the concentration at half-maximal activity (AC50) under setting [2] is 29.1 µM [falling, single point].
Regarding `Cc1cccc(OCc2nnc(SCn3nnc4ccccc4c3=O)o2)c1`, the cell number change was -17.8%. Besides, the AC50 under setting [2] is 0.103 µM [rising, full curve, poor fit].
Consider `O=C(Nc1ccc2oc(-c3ccncc3)nc2c1)c1cccs1`, for which, under setting [2], the AC50 was 0.13 µM [rising, full curve, poor fit].
For the molecule `Cc1ccc(-c2[nH]c(-c3ccc(C(=O)O)cc3)nc2-c2ccccc2)cc1`, the cell number change was -1.27%. Moreover, under setting [2], the AC50 was 1.84 µM [rising, full curve, poor fit].
As for `COc1ccc(N(C(=O)C(C)C)S(=O)(=O)c2ccc(Cl)cc2)cc1`, the cell number change is 5.46%.
As to `COc1ccc(CNS(=O)(=O)c2ccc(-c3cc(C)no3)cc2)cc1`, the cell number change is 13.7%. Also, the AC50 under setting [1] was 3.26 µM [rising, single point].
As to `CCCc1cc(-c2n[nH]c(=S)n2C(C)c2ccccc2)cs1` (configuration not stated), the cell number change was -15.4%.
On the same count and under the same terms, the same measure for `CN(c1nc2ccccc2nc1Cl)S(=O)(=O)c1ccccc1`: -18.1%.
Take `COc1ccc(CC(=O)Nc2c(C(=O)N3CCN(c4ccccc4OC)CC3)oc3ccccc23)cc1OC`: the cell number change is -36.5%. For the same molecule, under setting [1], the AC50 is 9.2 µM [falling, partial curve, poor fit]. In addition, under setting [2], the AC50 is 29.1 µM [falling, single point].
Consider `CC1(C)NC(=O)N(CN2C(=O)NC(C)(C)C2=O)C1=O`, for which the cell number change is -29.2%. In addition, the AC50 under setting [2] is 20.6 µM [falling, partial curve].
With `CCc1nc(SCc2ccc(Br)cc2)n[nH]1`, the cell number change is 24.1%. Moreover, under setting [2], the AC50 was 14.6 µM [rising, partial curve, poor fit].
With `COCC(C)NC(=O)c1cc(OC)cc(OC)c1` (configuration not stated), the cell number change was found to be 16%.
With `CCOC(=O)C(CC(=O)Nc1nc(C(C)=O)c(C)s1)C(C)c1ccccc1` (configuration not stated), the cell number change was 10.6%. Under setting [2], the AC50 is 13 µM [falling, partial curve].
On to `CC(=O)c1ccccc1OCc1ccc(C(=O)c2ccccc2)cc1`, for which the cell number change was -3.63%. The AC50 under setting [2] is 29.1 µM [falling, single point].
Take `Cc1ccc(N2CCOCC2)c2c1C(=O)c1ccccc1C2=O`: the cell number change was -84.9%. Moreover, the AC50 under setting [1] is 23.1 µM [falling, partial curve]. The AC50 under setting [2] was 11.6 µM [falling, single point].
On to `Cc1oc(-c2cccs2)nc1CN1CCN(C(C)C)C(CCO)C1` (configuration not stated), for which the cell number change was -8.5%. The AC50 under setting [2] was 29.1 µM [falling, single point].
`O=C(NS(=O)(=O)N1CCCC1)C1=C(N2CCCC2)COC1=O`: the cell number change is -6.88%. Moreover, the AC50 under setting [2] was 0.13 µM [falling, full curve, poor fit].
As to `CC(=O)C1=C(c2ccccc2)NC(=O)NC1c1ccc2c(c1)OCO2` (configuration not stated), the cell number change was -6.45%.
As for `NC(=O)CSc1nc2ccccc2n1Cc1ccccc1`, the cell number change was -25.9%. Besides, the AC50 under setting [1] was 0.00461 µM [rising, full curve, poor fit].
In the case of `Cc1cc(C(=O)COC(=O)C2=NNC(=O)CC2)c(C)n1-c1ccc(OC(F)F)cc1`, the cell number change was -11.6%.
As for `CN(C)CCCNC(=O)c1ccc(-c2nc(-c3ccc(Cl)cc3)cs2)cc1`, the cell number change was -42.1%. Besides, the AC50 under setting [1] is 20.6 µM [falling, partial curve]. Besides, the concentration at half-maximal activity (AC50) under setting [2] was 25.9 µM [falling, partial curve].
Turning to `CCn1cc(Br)c(C(=O)Nc2ccc(OC)cc2)n1`, the AC50 under setting [2] is 2.06 µM [rising, full curve].
Take `Cc1ccc(NC(=O)c2ccc(NCc3ccc(F)cc3)nc2)cc1`: the cell number change was -11.9%. For the same molecule, under setting [1], the AC50 was 0.116 µM [falling, full curve, poor fit].
Take `CCc1ccc(NC(=O)c2cnc(SC)nc2C)cc1`: the cell number change was determined as 18%. Besides, the AC50 under setting [2] is 29.1 µM [rising, single point].
On to `O=S(=O)(c1cnc(Cl)c(Cl)c1)N1CCCc2ccccc21`, for which the cell number change is 7.91%. Besides, the AC50 under setting [2] was 20.6 µM [rising, partial curve].
`NS(=O)(=O)c1ccc(CCNC(=O)c2cc([N+](=O)[O-])ccc2N2CCCCC2)cc1`: the cell number change is -4.17%. For the same molecule, under setting [2], the AC50 was 29.1 µM [rising, single point].
On to `O=C(COC(=O)CCS(=O)(=O)c1ccc(F)cc1)NC1CCCCC1`, for which the cell number change was -67.4%. For the same molecule, the concentration at half-maximal activity (AC50) under setting [1] was 1.46 µM [falling, full curve]. Also, the AC50 under setting [2] is 1.3 µM [falling, full curve].
As to `Cc1ccc(NC(=O)Nn2cnnc2)cc1Cl`, the cell number change amounted to 10.7%. For the same molecule, the AC50 under setting [2] was 32.6 µM [rising, single point].
For `CC(/C=N/n1c(-c2ccco2)n[nH]c1=S)=C\c1ccccc1`, the cell number change was -43.1%. Further, the AC50 under setting [1] is 23.1 µM [falling, single point].
For `CCOC(=O)N1CCN(CC(=O)Nc2ccc(C)cc2)CC1`, the cell number change was -13.6%. For the same molecule, the half-maximal activity concentration (AC50) under setting [2] was 20.6 µM [rising, single point].
`Cc1ccc2nc(NC(=O)C3CCN(C(=O)c4ccc(F)cc4)CC3)sc2c1`: the cell number change was determined as 20.2%. Moreover, under setting [2], the AC50 was 1.03 µM [rising, partial curve].
Turning to `COc1ccc(C2SCCN2C(=S)Nc2cccc(Cl)c2)cc1` (configuration not stated), the cell number change was -4.15%. In addition, the AC50 under setting [1] was 0.731 µM [falling, single point]. For the same molecule, under setting [2], the AC50 is 11.6 µM [rising, partial curve, poor fit].
Take `C[C@@H]1C[C@@H]2O[C@H]2/C=C\C=C\C(=O)Cc2c(Cl)c(O)cc(O)c2C(=O)O1`: the cell number change was -23.5%. Also, under setting [2], the AC50 was 3.26 µM [falling, full curve].
Regarding `C=CCN(CC(=O)NC1CCS(=O)(=O)C1)S(=O)(=O)c1ccccc1C(F)(F)F` (configuration not stated), the cell number change was -4.74%. Besides, the concentration at half-maximal activity (AC50) under setting [1] was 0.146 µM [falling, full curve, poor fit].
Take `COC(=O)C(NC(=O)c1c(C)nn(C)c1Cl)c1ccccc1` (configuration not stated): the cell number change stood at 0.519%. In addition, the half-maximal activity concentration (AC50) under setting [2] was 3.66 µM [falling, partial curve, poor fit].
`Clc1ccccc1OCCn1nnc2ccccc21`: the cell number change is 11%. In addition, the AC50 under setting [2] is 23.1 µM [rising, single point].
In the case of `CCN(CC)S(=O)(=O)c1ccc(NC(=O)COC(=O)c2cnc(C)cn2)cc1`, the cell number change was -23.8%. The concentration at half-maximal activity (AC50) under setting [1] is 4.11 µM [falling, full curve, poor fit]. The AC50 under setting [2] is 3.66 µM [falling, full curve].
Turning to `COCCCNC(=S)NNC(=O)c1cc(C2CC2)nc2ccccc12`, the cell number change is -39.6%. Besides, the AC50 under setting [1] is 16.4 µM [falling, partial curve, poor fit]. In addition, the AC50 under setting [2] is 29.1 µM [rising, single point].
Take `COC(=O)c1[nH]c2cccc(OC)c2c1NC(=O)CCN1CC(C)CC(C)C1` (configuration not stated): the cell number change was -13.9%. Further, the concentration at half-maximal activity (AC50) under setting [2] is 23.1 µM [falling, partial curve].
`CCN1C(=O)/C(=C\C(=O)c2cccs2)c2cc(Br)ccc21`: the cell number change worked out at 38.3%. The AC50 under setting [2] was 6.51 µM [rising, single point].
On to `CCOc1ncccc1C(=O)OCC(=O)Nc1ccc2c(c1)OCO2`, for which the cell number change is 3.55%. Moreover, the AC50 under setting [1] is 2.06 µM [rising, single point].
For the molecule `c1ccc(Oc2ncnc3sccc23)cc1`, the cell number change was -10.7%.
Regarding `FC(F)(F)c1nc(N2CCCC2)ncc1-c1nnnn1-c1ccc(Cl)cc1`, the cell number change was -39.1%. Under setting [1], the concentration at half-maximal activity (AC50) was 23.1 µM [falling, single point]. In addition, the AC50 under setting [2] is 4.11 µM [rising, single point].
With `CCN(CC)S(=O)(=O)c1ccc(C(=O)Nc2cccc(C)c2)cc1`, the cell number change was found to be 36.1%. The AC50 under setting [2] is 13 µM [rising, partial curve].
As for `Cc1csc2ncc(C(=O)N3c4ccccc4CC3C)c(=O)n12` (configuration not stated), under setting [2], the AC50 is 0.731 µM [falling, full curve, poor fit].
Regarding `COc1ccc(C2=NN(CC(=O)Nc3ccccc3C)C(=O)CC2)cc1`, the AC50 under setting [1] is 0.0651 µM [rising, full curve, poor fit] and the concentration at half-maximal activity (AC50) under setting [2] is 0.164 µM [rising, full curve, poor fit].
Regarding `Cc1ccc(CN(CC(O)COc2cccc3[nH]cc(C)c23)C(C)(C)C)cc1` (configuration not stated), the cell number change was -16.7%.
For `CCCCn1c(=O)[nH]c(=O)c2c1nc(-c1ccc(-c3ccccc3Br)o1)n2CCOC`, the cell number change came to 22.5%. For the same molecule, the AC50 under setting [2] was 2.31 µM [rising, partial curve, poor fit].
As for `Cc1cc(=O)oc2cc(OCC(=O)NCc3ccncc3)ccc12`, the cell number change stood at 16.2%.
For the molecule `Cc1nn2c(N)c(-c3ccccc3)cnc2c1-c1ccccc1`, the cell number change was -10.1%. Moreover, under setting [2], the AC50 is 0.116 µM [rising, full curve, poor fit].
For `COc1ccc(CCN(C)C2CCCN(C(=O)Cn3cnnn3)C2)cc1OC` (configuration not stated), the AC50 under setting [1] is 4.11 µM [falling, partial curve, poor fit].
Take `CC(Sc1nnc(-c2ccc(OC(F)F)cc2)n1N)C(=O)NCC1CCCO1` (configuration not stated): the cell number change is 4.27%. Also, under setting [2], the AC50 is 29.1 µM [rising, single point].
For the molecule `CCSC1=NC(C)(C)C=C(/C=C/c2ccc(Cl)cc2Cl)N1`, the cell number change is -5.75%. The AC50 under setting [2] is 29.1 µM [falling, single point].
For `COc1ccc(S(=O)(=O)n2ccc(-c3cnc(-c4ccccc4)s3)n2)cc1`, the cell number change worked out at 71%. For the same molecule, under setting [1], the AC50 was 13 µM [rising, partial curve].
In the case of `Cc1cccc(OCC(=O)N/N=C/c2cc([N+](=O)[O-])ccc2N2CCOCC2)c1`, the cell number change is -52.1%. Besides, the AC50 under setting [1] is 1.03 µM [falling, partial curve]. Further, under setting [2], the AC50 is 29.1 µM [falling, single point].
Regarding `Cc1cc(NCc2ccccc2)n2ncc(-c3ccccc3)c2n1`, the cell number change was 98.6%. Moreover, under setting [1], the AC50 was 29.1 µM [rising, single point]. Further, the AC50 under setting [2] is 29.1 µM [falling, single point].
Consider `Cc1ccccc1N1C(S)=C(C#N)C(=O)NC1c1cccs1` (configuration not stated), for which the cell number change is 0.246%. In addition, the AC50 under setting [2] is 20.6 µM [falling, single point].
